Results: paper PMC4948778
Results are given in words; binding and its absence hold for the method and conditions named. Binding seen in cells or lysates may run through a third protein.

Molecular target: RPP1_NdA LRR domain (aa 606-1154) (Arabidopsis thaliana)
Assay: co-IP; differently tagged (3xFlag, 6xHA) constructs transiently co-expressed in N. benthamiana leaves, 36 or 48 hpi; alpha-Flag agarose, 3 h at 4 C; 50 mM Tris-HCl pH 7.5, 150 mM NaCl, 0.1% Triton X-100, 0.2% Nonidet P-40, 6 mM beta-mercaptoethanol; no effector needed (in Fig 7A and S18 ATR1_Emoy2 or ATR1_Cala2 co-expressed, said not to affect binding)

B1: RPS2 LRR (aa 490-909) (domain or fragment, UniProt Q42484 490-909)
chain: KELILVEPSMGHTEAPKAENWRQALVISLLDNRIQTLPEKLICPKLTTLMLQQNSSLKKIPTGFFMHMPVLRVLDLSFTSITEIPLSIKYLVELYHLSMSGTKISVLPQELGNLRKLKHLDLQRTQFLQTIPRDAICWLSKLEVLNLYYSYAGWELQSFGEDEAEELGFADLEYLENLTTLGITVLSLETLKTLFEFGALHKHIQHLHVEECNELLYFNLPSLTNHGRNLRRLSIKSCHDLEYLVTPADFENDWLPSLEVLTLHSLHNLTRVWGNSVSQDCLRNIRCINISHCNKLKNVSWVQKLPKLEVIELFDCREIEELISEHESPSVEDPTLFPSLKTLRTRDLPELNSILPSRFSFQKVETLVITNCPRVKKLPFQERRTQMNLPTVYCEEKWWKALEKDQPNEELCYLPRFVPN
binding: no binding
